We go through two molecules from patent US20230147852A1.

No constants are given. Whether binding was seen depends on the method and setting.

The test addresses Cyno LAG3 (cynomolgus monkey). Nature of the test: […], antibody ([…]) at 2 µg/mL, […].

B1: 8D9 (antibody, V domains shown)
VH: QVQLVQSGAEVRKPGSSVKVSCKASGGTFSNYAFSWVRQAPGLGLEWLGAIIPEFDTANYAQKFKDRVTITADDSTTTVYMELSSLRSEDTAVYYCASGMWDYYGSGSSIDYWGQGTLVTVSS
VL: QSVLTQPPSASGTPGQRVTISCSGSNSDIGRNPVNWYHQFPGTAPKLLIFSNSHRPSGVPDRFSGSKSGTSASLAIGGLQSDDEADYYCAAWSDSLNGYVFGTGTKLTVL
Regarding B1, the binding result is listed as “no binding (tested: 2 µg/mL)”.

B2: 1C5-3A6 (antibody, V domains shown)
VH: QVQLVQSGAEVKKPGASVKVSCKASGYTLTDYYIHWVRQAPGQGLEWVGWINPNSGGTNYEQKFQGRVTMTWDTSISTAYMELSRLTSDDTAVYYCAREGWSNDWYVGYYFDYWGQGTLVTVSS
VL: DIQMTQSPLSLSASVGDRVSITCRASQYIGTSLNWYEQKPGNSPKLLITGASRLQSGVPSRFSGSGSGTDFTLTINTLQPDDLATYYCHQSYDDPPTFGQGTKLEIK
On to B2, for which the binding result is listed as “no binding (tested: 2 µg/mL)”.
